# Measurements taken from the supplement of paper PMC12595434, “Development of retinoid nuclear receptor pathway antagonists through targeting aldehyde dehydrogenase 1A3” (iScience, 2025).
# Amino acid sequences for entries named in this document (tags omitted). A change or cut given only in a name is not applied to a line headed by its entry.
# UniProt P55735: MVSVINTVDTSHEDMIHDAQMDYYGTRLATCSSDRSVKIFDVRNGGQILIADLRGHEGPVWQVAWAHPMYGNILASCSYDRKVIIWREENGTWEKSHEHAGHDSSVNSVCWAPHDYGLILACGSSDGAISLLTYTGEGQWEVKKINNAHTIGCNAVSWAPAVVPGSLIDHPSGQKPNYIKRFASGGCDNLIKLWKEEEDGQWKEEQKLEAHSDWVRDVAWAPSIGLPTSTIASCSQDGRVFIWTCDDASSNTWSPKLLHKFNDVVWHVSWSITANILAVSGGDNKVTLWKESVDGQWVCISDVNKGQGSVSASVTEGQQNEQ
# UniProt P61970, whole entry: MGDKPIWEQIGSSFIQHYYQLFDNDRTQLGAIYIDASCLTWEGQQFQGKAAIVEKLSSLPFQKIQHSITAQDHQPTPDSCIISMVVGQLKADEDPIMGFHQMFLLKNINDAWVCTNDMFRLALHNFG
# UniProt P51991: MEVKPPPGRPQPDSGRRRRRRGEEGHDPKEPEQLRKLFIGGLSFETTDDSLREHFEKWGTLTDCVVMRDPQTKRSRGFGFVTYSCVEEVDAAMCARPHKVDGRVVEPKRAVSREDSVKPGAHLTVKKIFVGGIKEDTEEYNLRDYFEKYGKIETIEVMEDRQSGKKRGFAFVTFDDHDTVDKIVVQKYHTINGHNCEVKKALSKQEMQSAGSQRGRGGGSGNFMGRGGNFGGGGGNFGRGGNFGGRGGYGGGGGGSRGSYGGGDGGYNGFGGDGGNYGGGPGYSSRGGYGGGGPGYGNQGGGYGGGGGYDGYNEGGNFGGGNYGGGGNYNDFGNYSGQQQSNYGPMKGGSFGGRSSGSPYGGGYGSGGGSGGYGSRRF
# UniProt P61026: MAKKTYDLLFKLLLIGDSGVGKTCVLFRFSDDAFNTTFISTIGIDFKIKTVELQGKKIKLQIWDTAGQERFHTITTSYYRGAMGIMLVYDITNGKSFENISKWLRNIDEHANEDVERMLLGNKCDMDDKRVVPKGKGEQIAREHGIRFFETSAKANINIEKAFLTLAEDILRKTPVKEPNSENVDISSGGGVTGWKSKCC
# UniProt P61225: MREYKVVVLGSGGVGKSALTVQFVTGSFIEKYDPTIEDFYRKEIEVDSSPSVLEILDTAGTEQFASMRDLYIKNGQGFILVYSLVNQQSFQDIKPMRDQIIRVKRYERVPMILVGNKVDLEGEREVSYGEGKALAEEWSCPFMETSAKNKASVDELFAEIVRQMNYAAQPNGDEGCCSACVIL
# UniProt P54922: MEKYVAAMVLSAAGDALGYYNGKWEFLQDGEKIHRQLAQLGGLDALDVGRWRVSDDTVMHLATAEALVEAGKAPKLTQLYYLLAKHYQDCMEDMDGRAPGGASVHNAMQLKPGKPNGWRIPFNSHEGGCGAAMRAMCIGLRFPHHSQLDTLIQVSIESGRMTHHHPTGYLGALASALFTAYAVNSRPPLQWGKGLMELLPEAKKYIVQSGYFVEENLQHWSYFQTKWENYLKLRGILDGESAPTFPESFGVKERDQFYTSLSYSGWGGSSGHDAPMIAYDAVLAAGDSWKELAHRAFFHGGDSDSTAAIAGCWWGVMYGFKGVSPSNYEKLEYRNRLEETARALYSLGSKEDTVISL
# UniProt P68036, whole entry: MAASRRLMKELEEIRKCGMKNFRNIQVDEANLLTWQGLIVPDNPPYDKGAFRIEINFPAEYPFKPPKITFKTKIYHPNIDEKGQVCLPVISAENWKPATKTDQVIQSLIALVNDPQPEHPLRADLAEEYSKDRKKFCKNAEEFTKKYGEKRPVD
# UniProt P57678: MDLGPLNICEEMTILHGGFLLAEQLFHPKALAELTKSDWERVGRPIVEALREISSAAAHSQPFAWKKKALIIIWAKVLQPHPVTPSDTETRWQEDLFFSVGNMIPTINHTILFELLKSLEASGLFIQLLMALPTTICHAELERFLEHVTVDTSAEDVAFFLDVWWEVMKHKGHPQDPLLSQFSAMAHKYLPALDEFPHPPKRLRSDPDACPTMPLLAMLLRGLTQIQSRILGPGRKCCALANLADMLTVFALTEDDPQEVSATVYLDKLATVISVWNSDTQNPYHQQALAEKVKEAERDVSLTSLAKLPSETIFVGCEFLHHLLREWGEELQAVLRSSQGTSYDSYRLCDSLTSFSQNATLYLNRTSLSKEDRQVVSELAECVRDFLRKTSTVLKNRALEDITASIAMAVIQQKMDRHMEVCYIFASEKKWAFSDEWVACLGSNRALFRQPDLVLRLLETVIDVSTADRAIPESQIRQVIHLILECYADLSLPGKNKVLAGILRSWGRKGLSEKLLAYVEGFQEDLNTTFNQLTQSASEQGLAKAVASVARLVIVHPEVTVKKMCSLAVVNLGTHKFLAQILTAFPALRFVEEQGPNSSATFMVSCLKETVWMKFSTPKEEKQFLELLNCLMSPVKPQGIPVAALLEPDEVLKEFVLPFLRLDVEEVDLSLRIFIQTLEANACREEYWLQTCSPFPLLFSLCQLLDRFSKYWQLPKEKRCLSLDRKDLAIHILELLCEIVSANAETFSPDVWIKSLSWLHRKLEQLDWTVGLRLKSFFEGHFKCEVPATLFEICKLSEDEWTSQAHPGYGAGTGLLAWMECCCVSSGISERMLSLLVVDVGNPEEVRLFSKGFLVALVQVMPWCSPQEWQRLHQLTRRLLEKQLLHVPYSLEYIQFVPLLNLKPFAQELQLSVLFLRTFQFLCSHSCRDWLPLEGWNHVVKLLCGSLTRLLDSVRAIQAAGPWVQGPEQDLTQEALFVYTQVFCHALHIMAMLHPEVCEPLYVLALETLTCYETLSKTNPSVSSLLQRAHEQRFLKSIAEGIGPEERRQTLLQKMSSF
# UniProt P54619: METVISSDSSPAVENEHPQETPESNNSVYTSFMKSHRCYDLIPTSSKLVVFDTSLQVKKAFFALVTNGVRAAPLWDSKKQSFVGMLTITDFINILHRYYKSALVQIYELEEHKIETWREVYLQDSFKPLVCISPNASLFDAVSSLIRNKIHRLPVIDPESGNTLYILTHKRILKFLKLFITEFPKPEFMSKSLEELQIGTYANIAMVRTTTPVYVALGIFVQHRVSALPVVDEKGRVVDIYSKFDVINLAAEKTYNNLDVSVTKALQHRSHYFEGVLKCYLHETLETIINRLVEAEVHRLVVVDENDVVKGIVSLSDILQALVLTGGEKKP
# UniProt P62136, whole entry: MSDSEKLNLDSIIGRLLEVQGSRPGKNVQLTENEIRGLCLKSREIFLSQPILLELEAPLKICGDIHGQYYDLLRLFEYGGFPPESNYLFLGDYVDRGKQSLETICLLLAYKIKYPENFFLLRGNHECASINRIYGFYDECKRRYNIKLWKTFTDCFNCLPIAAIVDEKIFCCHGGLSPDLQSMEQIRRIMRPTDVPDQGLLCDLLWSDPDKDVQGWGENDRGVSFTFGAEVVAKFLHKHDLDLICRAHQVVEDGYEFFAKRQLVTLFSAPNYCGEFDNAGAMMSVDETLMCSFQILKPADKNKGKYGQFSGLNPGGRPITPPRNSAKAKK
# UniProt P54289, whole entry: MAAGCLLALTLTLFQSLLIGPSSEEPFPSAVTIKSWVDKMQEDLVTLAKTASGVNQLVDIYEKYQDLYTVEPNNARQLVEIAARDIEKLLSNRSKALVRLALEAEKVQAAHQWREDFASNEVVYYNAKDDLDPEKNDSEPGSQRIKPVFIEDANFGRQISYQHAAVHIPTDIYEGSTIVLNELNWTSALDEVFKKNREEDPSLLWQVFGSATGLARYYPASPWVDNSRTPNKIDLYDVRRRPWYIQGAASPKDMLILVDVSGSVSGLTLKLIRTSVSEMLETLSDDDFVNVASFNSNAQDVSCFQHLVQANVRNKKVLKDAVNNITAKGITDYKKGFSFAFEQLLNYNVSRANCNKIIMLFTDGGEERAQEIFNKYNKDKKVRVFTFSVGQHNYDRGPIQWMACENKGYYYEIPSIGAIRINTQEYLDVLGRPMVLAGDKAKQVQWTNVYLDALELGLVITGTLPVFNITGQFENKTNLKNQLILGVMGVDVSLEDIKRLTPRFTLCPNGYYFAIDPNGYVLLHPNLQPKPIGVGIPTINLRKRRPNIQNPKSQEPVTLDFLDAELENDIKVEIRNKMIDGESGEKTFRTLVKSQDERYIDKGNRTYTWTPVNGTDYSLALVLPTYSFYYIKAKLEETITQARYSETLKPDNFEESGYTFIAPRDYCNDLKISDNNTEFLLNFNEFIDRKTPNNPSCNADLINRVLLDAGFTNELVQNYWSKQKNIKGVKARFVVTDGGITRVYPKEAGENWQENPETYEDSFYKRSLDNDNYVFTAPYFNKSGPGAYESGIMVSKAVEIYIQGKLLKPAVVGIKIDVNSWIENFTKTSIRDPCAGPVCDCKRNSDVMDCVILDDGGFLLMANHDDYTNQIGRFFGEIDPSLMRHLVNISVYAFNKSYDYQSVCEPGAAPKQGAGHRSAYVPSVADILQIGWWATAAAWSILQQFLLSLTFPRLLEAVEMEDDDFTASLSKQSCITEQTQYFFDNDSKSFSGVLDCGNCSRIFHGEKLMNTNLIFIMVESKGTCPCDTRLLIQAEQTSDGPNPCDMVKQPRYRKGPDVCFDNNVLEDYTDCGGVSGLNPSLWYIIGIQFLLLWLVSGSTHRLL
# UniProt P62166, whole entry, looked up: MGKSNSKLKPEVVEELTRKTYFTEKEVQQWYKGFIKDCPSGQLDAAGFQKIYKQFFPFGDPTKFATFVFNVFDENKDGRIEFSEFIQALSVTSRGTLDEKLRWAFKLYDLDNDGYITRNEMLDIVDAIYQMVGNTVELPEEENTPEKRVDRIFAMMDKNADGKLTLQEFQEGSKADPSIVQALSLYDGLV
# UniProt P62330: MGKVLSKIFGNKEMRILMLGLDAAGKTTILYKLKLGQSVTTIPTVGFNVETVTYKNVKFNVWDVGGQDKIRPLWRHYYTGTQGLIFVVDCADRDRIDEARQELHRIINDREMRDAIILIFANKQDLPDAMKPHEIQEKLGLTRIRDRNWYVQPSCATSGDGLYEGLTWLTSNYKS
# UniProt P53677: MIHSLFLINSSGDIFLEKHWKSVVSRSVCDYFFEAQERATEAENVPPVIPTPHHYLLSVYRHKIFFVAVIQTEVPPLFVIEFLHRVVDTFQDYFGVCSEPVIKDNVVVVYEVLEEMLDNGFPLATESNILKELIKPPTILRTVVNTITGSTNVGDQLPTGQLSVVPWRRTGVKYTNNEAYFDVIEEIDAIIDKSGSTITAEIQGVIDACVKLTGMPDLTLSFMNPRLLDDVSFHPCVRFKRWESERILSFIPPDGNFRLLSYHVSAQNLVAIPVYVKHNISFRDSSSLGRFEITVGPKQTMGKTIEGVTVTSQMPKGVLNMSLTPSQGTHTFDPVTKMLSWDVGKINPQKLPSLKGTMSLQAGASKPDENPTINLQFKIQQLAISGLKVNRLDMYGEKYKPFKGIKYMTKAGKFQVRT
# UniProt P61006: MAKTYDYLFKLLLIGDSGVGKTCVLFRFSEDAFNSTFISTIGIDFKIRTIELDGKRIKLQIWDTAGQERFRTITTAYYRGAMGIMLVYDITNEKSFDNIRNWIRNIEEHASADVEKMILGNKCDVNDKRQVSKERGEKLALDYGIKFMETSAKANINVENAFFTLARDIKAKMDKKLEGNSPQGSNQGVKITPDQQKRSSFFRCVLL
# UniProt P52756, whole entry: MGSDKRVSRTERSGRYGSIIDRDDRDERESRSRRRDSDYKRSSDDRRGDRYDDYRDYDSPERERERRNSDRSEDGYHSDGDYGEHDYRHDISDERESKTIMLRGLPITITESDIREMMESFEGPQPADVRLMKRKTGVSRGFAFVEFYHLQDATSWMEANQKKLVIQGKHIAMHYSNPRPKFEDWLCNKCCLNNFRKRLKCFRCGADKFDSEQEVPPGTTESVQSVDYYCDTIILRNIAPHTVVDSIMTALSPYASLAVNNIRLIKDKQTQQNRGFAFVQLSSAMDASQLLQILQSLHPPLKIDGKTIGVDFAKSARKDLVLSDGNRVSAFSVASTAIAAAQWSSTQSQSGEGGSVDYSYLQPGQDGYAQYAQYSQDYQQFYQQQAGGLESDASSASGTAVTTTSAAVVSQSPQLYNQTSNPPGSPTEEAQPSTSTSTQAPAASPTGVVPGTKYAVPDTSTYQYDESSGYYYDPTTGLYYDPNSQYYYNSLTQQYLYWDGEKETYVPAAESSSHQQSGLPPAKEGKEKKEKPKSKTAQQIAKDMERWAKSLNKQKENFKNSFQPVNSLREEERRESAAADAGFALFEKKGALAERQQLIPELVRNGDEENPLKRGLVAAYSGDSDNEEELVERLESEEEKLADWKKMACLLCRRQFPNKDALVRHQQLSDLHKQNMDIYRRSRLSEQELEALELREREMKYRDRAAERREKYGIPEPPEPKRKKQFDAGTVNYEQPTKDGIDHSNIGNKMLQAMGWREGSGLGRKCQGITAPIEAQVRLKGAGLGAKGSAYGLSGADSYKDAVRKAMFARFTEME
# UniProt P61966: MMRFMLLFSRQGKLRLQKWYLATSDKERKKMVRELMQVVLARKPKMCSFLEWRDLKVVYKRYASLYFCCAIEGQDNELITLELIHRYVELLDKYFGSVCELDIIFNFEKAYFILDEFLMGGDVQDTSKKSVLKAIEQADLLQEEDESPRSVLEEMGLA
# The list shows a part of the results. This is a noisy data set.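 Tm was set to 64 °C where no melting was found, and many curves are irregular.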
# Compound: CCc1cnccc1C(=O)Nc1cc2c(cc1F)NC(=O)CC2
# Assay: melting temperature shift (DMSO Tm minus MBE1-treated Tm) in cellular thermal proteome profiling; higher = less thermal stabilization by MBE1 (negative = stabilized by MBE1)
# Conditions: A375; MBE1 concentration: 100 nM
row,Target,melting temperature shift [°C]
1,SEC13 (UniProt P55735),0.855
2,UniProt P63092,-0.959
3,SNX16 (UniProt P57768),0.8
4,NUTF2 (UniProt P61970),-0.838
5,HNRNPA3 (UniProt P51991),0.183
6,RAB10 (UniProt P61026),-1.72
7,EPHB3 (UniProt P54753),-0.0855
8,UniProt P52815,-2.4
9,RPS15 (UniProt P62841),-0.476
10,RAP2B (UniProt P61225),-1.58
11,YBX1 (UniProt P67809),-1.24
12,UniProt P54922,-0.134
13,GABARAPL2 (UniProt P60520),-1.05
14,AK2 (UniProt P54819),-2.35
15,UniProt P52739,-1.67
16,UBE2L3 (UniProt P68036),-0.557

row,Target,melting temperature shift [°C]
1,GEMIN4 (UniProt P57678),-1.26
2,PRKAG1 (UniProt P54619),0.208
3,RPL27 (UniProt P61353),-0.226
4,RPL23 (UniProt P62829),0.311
5,PPP1CA (UniProt P62136),-0.409
6,UniProt P61326,0.0244
7,UniProt P54289,-1.04
8,NCS1 (UniProt P62166),-1.08
9,RPL31 (UniProt P62899),-1.41
10,ARF6 (UniProt P62330),-1.09
11,UniProt P53677,0.397
12,RPS24 (UniProt P62847),-0.788
13,RAB8A (UniProt P61006),-1.46
14,UniProt P52756,-0.333
15,RPS21 (UniProt P63220),-0.697
16,AP1S1 (UniProt P61966),0.837

# An excerpt of these results, tab-delimited.
row	Target	melting temperature shift [°C]
6	RAB10 (UniProt P61026)	-1.72
14	AK2 (UniProt P54819)	-2.35
